Reference: patent US20210380683A1, “MODULATION OF IRF-4 AND USES THEREOF” (THE METHODIST HOSPITAL SYSTEM, priority 2018, published 2021)
At least one compound was matched to its structure with a doubt left.

Tested on: EAE in B6 mice
Test: MOG35-55-induced experimental autoimmune encephalomyelitis (EAE)
Format: in vivo, mouse
Conditions: 3 mg/kg oral gavage every other day from day 0 to day 12

CC(=O)Nc1cccc(-n2c(=O)n(C3CC3)c(=O)c3c(Nc4ccc(I)cc4F)n(C)c(=O)c(C)c32)c1 [trametinib]
EAE development (incidence of disease, loss of motor function or paralysis): resistant to EAE and exhibited no incidence of disease
